Laboratory results reported in article PMC8750366, “Role of the Redox State of Human Peroxiredoxin-5 on Its TLR4-Activating DAMP Function” (Antioxidants, 2021).
These are yes or no findings as the source states them, for the method shown. Some entries that bind do so weakly or less than the wild type. Sequences can lack the tags named with a protein.

Protein sequences, listed by entry. Tags and fused reporters are not part of them. Residues count along the entry.
UniProt O00206, residues 24-839: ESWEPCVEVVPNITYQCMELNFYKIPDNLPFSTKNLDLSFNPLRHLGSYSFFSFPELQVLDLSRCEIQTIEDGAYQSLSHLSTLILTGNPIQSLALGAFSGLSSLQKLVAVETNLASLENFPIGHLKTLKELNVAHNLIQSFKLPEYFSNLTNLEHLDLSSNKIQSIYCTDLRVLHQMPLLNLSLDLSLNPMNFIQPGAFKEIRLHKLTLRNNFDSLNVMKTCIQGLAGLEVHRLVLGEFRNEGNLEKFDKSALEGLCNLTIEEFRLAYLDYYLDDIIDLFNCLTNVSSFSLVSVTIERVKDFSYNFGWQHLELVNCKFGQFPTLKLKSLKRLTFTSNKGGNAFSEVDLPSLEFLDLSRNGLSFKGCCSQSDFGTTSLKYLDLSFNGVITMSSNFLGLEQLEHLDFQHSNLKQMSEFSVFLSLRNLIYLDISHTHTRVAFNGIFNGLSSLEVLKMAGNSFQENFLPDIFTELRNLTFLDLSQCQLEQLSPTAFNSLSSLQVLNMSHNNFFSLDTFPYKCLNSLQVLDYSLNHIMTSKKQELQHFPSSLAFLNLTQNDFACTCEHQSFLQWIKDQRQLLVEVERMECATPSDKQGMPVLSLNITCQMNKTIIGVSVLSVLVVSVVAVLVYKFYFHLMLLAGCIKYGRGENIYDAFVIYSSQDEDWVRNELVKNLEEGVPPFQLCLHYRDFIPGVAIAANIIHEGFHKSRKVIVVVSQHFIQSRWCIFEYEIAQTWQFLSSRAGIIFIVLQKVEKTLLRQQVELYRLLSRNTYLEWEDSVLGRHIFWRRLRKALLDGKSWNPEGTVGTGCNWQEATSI

Experiments:
[1] = target: recombinant wild-type N-terminal 6xHis-tagged human peroxiredoxin-5, disulfide (oxidized) form (human) (UniProt P30044); test: non-reducing SDS-PAGE and Western blot; 100 ng of each redox form, SDS-PAGE under non-reducing conditions, anti-PRDX5 serum; both purified
[2] = target: recombinant wild-type N-terminal 6xHis-tagged human peroxiredoxin-5, disulfide (oxidized) form (human) (UniProt P30044); test: ESI-Q-TOF MS of intact proteins by direct infusion; samples in TEAB, dimedone and CAM blocked, acidified with 1% TFA, C4 ZipTip, eluted in 50% acetonitrile, 0.1% formic acid; MaxEnt1 deconvolution; both purified
[3] = target: TLR4-YFP stably expressed on HEK293 MD2-CD14 cells (UniProt O00206); test: flow cytometry on cells; living HEK293 MD2-CD14 TLR4 cells exposed to 1 µM of the PRDX5 redox forms or increasing dsPRDX5 in DMEM, 40 min on ice; detected with anti-PRDX5 serum and Alexa Fluor 647 Plus secondary antibody; MFI of untreated cells subtracted; only the binder purified

Measured: binding

B1: recombinant wild-type N-terminal 6xHis-tagged human peroxiredoxin-5, disulfide (oxidized) form (enzyme)
chain: APIKVGDAIPAVEVFEGEPGNKVNLAELFKGKKGVLFGVPGAFTPGCSKTHLPGFVEQAEALKAKGVQVVACLSVNDAFVTGEWGRAHKAEGKVRLLADPTGAFGKETDLLLDDSLVSIFGNRRLKRFSMVVQDGIVKALNVEPDGTGLTCSLAPNIISQL
modifications: disulfide bridge between C47 and C151
notes: human peroxiredoxin-5 (PRDX5), wild type; calculated mass with reduced thiols 18,297.81 Da; Mainly a dimer by SEC-MALS, with ~30% monomers; also called dsPRDX5; PRDX5; source: E. coli M15 (pRep4), pQE-30, purified (Ni-NTA), dialyzed against PBS; not shown: His6, N-terminal, kept
binds: [1] | [2] | [3]
